Measurements as given in US20080008651A1, “Screening Methods and Transgenic Animals for the Treatment of Beta-Globin Related Disease and Conditions” (THE REGENTS OF THE UNIVERSITY OF MICHIGAN, published 2008).
No constants are given. Whether binding was seen depends on the method and setting. Some entries that bind do so weakly or less than the wild type. Sequences can lack the tags named with a protein. Values belong to the binder of their own block, whether it stands above or below them.

Legend:
[1] = biological target: T1, mouse TR2 orphan nuclear receptor, Flag-tagged at the amino terminus, wild type (mouse), Q505F1; assay: EMSA of 293T nuclear extracts on the ε distal DR probe; homodimer inferred; details: remark: other sources report otherwise
T1 chain: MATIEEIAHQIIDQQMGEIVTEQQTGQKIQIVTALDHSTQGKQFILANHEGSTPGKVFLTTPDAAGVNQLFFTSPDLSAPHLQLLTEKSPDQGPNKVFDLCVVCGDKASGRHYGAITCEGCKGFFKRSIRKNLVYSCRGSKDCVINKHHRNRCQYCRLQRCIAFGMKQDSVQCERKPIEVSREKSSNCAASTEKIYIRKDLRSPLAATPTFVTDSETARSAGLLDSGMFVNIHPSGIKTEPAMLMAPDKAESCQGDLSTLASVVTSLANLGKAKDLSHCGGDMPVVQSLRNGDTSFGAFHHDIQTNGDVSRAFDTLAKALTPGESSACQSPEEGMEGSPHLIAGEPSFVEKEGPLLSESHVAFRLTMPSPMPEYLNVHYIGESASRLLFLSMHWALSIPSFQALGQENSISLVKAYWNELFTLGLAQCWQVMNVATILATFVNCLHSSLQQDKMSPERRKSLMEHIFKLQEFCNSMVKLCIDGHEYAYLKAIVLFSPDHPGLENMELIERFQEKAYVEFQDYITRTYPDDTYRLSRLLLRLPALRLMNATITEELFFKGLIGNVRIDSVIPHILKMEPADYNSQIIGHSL

[2] = biological target: T2, mouse TR4 orphan nuclear receptor, Flag-tagged at the amino terminus, wild type (mouse), P49117; assay: as above; details: remark: other sources report otherwise
T2 chain: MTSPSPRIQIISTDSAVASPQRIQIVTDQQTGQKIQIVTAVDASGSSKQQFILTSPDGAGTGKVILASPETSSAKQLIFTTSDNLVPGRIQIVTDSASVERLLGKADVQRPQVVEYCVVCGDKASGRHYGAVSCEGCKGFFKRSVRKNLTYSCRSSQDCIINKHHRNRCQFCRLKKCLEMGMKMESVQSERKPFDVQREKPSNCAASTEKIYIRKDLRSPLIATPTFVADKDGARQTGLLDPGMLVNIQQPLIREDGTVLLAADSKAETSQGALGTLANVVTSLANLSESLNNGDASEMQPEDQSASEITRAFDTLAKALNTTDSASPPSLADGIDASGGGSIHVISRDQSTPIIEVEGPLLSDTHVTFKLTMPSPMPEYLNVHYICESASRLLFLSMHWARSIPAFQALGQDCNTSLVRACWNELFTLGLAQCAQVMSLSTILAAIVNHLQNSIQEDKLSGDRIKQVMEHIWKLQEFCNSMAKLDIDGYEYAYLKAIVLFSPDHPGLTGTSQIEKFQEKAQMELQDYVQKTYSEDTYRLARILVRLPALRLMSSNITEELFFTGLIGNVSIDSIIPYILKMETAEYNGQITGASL

binding [1]: binds
B1: mouse TR2 orphan nuclear receptor, Flag-tagged at the amino terminus, wild type (receptor, UniProt Q505F1 1-590, looked up)
chain: T1 chain
notes: also called wild type TR2; not shown: Flag tag at the amino terminus

binding [2]: binds
B2: mouse TR4 orphan nuclear receptor, Flag-tagged at the amino terminus, wild type, P49117 1-596 (receptor, UniProt P49117 1-596, looked up, not shown: small tags and cut ends)
chain: T2 chain
